Data source: PubChem BioAssay AID504774 (Drosophila RNAi Screening Center, 2011)
Purpose: 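Knock-downs that shift viability of MMS-exposed cells relative to untreated ones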 (primary screen). Cells: Drosophila Kc167 cells. Reagent: long dsRNA against Drosophila genes, about 0.25 µg dsRNA per well. Duration: about 6 days: 3 days knock-down, then 3 days with or without MMS. Challenge: methyl methanesulphonate 0.004% (w/v) for 3 days after knock-down. Read-out: 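Viability in wells given MMS, read as ATP luminescence, normalised by quantiles plate by plate and averaged across replicates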. Reading the numbers: mean viability with MMS and viability with MMS: higher = more surviving cells after MMS.
In all, the deposit lists about 23,000 reagents; shown is a random part of those with a known target gene and a result. 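Values are quantile-normalised luminescence on an arbitrary scale; higher means more cells surviving MMS.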 Names joined by + are all predicted targets of the reagent.

gene knocked down | dsRNA | mean viability with MMS | viability with MMS, replicate 1 | viability with MMS, replicate 2
Dhit | DRSC07411 | 3.69e6 | 4.13e6 | 4.24e6
CG13708 | DRSC08317 | 3.67e6 | 4.32e6 | 4.01e6
CG8067 | DRSC07065 | 3.74e6 | 4.14e6 | 4.33e6
CAH14 | DRSC04234 | 3.60e6 | 4.06e6 | 4.12e6
CAH14 | DRSC22160 | 3.62e6 | 4.12e6 | 4.04e6
Def | DRSC07398 | 3.65e6 | 4.14e6 | 4.07e6
wnd | DRSC09626 | 3.50e6 | 3.95e6 | 3.99e6
wnd | DRSC11046 | 3.44e6 | 3.90e6 | 3.88e6
wnd | DRSC21373 | 3.52e6 | 4.04e6 | 3.97e6
CG10947 | DRSC02111 | 3.34e6 | 3.75e6 | 3.77e6
TwdlN | DRSC15813 | 3.47e6 | 3.92e6 | 3.92e6
AdoR | DRSC16556 | 3.03e6 | 3.55e6 | 3.56e6
mRpS2 | DRSC00550 | 3.67e6 | 4.10e6 | 4.16e6
CG31862 | DRSC01245 | 3.35e6 | 3.72e6 | 3.83e6
qless | DRSC15103 | 3.39e6 | 3.87e6 | 3.75e6
qless | DRSC15507 | 3.42e6 | 3.85e6 | 3.84e6
CG12071 | DRSC14471 | 2.81e6 | 3.49e6 | 3.49e6
CG12071 | DRSC22972 | 3.25e6 | 3.73e6 | 3.59e6
Syn1 + CG7370 | DRSC22768 | 3.60e6 | 4.06e6 | 4.05e6
CG34277 + CG31542 | DRSC21544 | 3.40e6 | 3.94e6 | 3.84e6
Deaf1 | DRSC11143 | 3.54e6 | 4.12e6 | 3.82e6
Deaf1 | DRSC22786 | 3.28e6 | 3.90e6 | 3.80e6
Edc3 | DRSC10620 | 3.85e6 | 4.37e6 | 4.30e6
Rap1 | DRSC08686 | 3.53e6 | 4.05e6 | 3.96e6
CG31816 | DRSC01547 | 3.60e6 | 3.95e6 | 4.18e6
CR10032 | DRSC12499 | 3.64e6 | 4.18e6 | 4.05e6
Proc | DRSC03009 | 2.72e6 | 3.47e6 | 3.42e6
Proc | DRSC22998 | 3.62e6 | 4.06e6 | 4.17e6
acj6 | DRSC20304 | 3.66e6 | 4.05e6 | 3.93e6
CG31139 | DRSC21393 | 3.65e6 | 4.14e6 | 4.11e6
128up | DRSC05027 | 3.49e6 | 4.02e6 | 3.86e6
RpL13 | DRSC03416 | 1.15e6 | 3.55e6 | 3.54e6
CG7741 | DRSC07035 | 3.41e6 | 4.02e6 | 3.29e6
MtnD | DRSC22733 | 3.59e6 | 4.11e6 | 3.99e6
Hdc | DRSC07439 | 3.62e6 | 4.17e6 | 4.06e6
CG12853 | DRSC06193 | 3.52e6 | 3.78e6 | 3.99e6
CG14736 | DRSC14956 | 3.46e6 | 3.95e6 | 3.94e6
CG17217 | DRSC02592 | 3.60e6 | 4.03e6 | 4.12e6
CG14545 | DRSC14889 | 3.64e6 | 3.99e6 | 4.27e6
CG34196 | DRSC05704 | 3.51e6 | 3.96e6 | 3.99e6
CG13716 | DRSC08325 | 3.70e6 | 3.53e6 | 3.53e6
CG13716 | DRSC22815 | 3.49e6 | 3.99e6 | 3.96e6
Atg101 | DRSC20020 | 3.54e6 | 4.15e6 | 3.89e6
sl | DRSC20377 | 3.32e6 | 3.95e6 | 3.52e6
sl | DRSC21782 | 3.30e6 | 3.79e6 | 3.83e6
CG42747 | DRSC10209 | 3.56e6 | 4.06e6 | 4.03e6
CG42747 | DRSC10210 | 3.55e6 | 4.10e6 | 3.95e6
Shab | DRSC08013 | 3.68e6 | 4.24e6 | 4.07e6
Shab | DRSC08643 | 3.44e6 | 3.91e6 | 3.91e6
Shab | DRSC08699 | 3.26e6 | 3.81e6 | 3.70e6
Mov10 | DRSC07012 | 3.40e6 | 3.86e6 | 3.85e6
CG31823 | DRSC01887 | 3.63e6 | 4.14e6 | 4.07e6
Trpm | DRSC06629 | 3.55e6 | 4.14e6 | 3.92e6
Trpm | DRSC21566 | 3.42e6 | 3.93e6 | 3.89e6
cN-IIIB | DRSC04359 | 3.59e6 | 3.98e6 | 4.03e6
CG3335 | DRSC10358 | 3.37e6 | 3.75e6 | 3.83e6
TfIIEbeta | DRSC08701 | 3.15e6 | 3.63e6 | 3.60e6
loh | DRSC01122 | 3.52e6 | 4.08e6 | 3.89e6
loh | DRSC02943 | 3.61e6 | 4.22e6 | 3.96e6
CG18048 | DRSC12573 | 3.64e6 | 4.19e6 | 4.06e6
CG10912 | DRSC06009 | 3.61e6 | 4.12e6 | 4.07e6
Catsup | DRSC03288 | 3.51e6 | 4.00e6 | 3.96e6
CG10055 | DRSC12503 | 3.47e6 | 3.99e6 | 3.91e6
hook | DRSC03545 | 3.57e6 | 4.03e6 | 4.09e6
Gdi | DRSC03330 | 3.69e6 | 4.10e6 | 4.32e6
Fbxo42 | DRSC04529 | 3.56e6 | 4.19e6 | 3.98e6
Cndp2 | DRSC04873 | 3.58e6 | 4.12e6 | 4.00e6
PpD6 | DRSC00774 | 3.55e6 | 4.07e6 | 3.97e6
PpD6 | DRSC23331 | 3.64e6 | 4.12e6 | 4.15e6

As entered above.
Shab [DRSC08699], viability with MMS, replicate 1 → 3.81e6
For “viability with MMS, replicate 1”, CG12071 [DRSC14471] is entered as 3.49e6
Under “mean viability with MMS”, CG34277 + CG31542 [DRSC21544] has 3.40e6
